PubChem BioAssay AID686938 – Drosophila RNAi Screening Center – 2013
In all, the deposit lists about 23,000 reagents; below is an unselected part of those with a known target gene and a result. Of all reagents, 75 (0.33%) were called active. 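Raw plate signals without normalisation; calls rest on plate z-scores that were not deposited; ratio present for only 364 wells.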 Not given: the dose of the treatment.

Purpose: 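Fly genes required for calcium entry once internal stores are emptied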 (primary screen)
System: Drosophila S2R+ cells
Reagent: long dsRNA against Drosophila genes, about 0.25 µg dsRNA per well, roughly 10,000 cells
Duration: 5 days of knock-down before the calcium assay
Treatment: thapsigargin (SERCA pump blocker) to empty calcium stores; entry signal taken 4 min after adding it
Detection: 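Per-well fluo-4 fluorescence in two replicates, unnormalised, measured in resting cells and 4 min after store depletion by the SERCA blocker thapsigargin; ratio of the two present in few wells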
Scale: calcium entry signal: higher = stronger calcium signal after store depletion; resting calcium signal: higher = higher resting calcium signal
Call rule: 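Called when the plate z-score of the entry-to-rest ratio, mean of duplicates, falls below −3; wells with low overall dye signal (Fmax z below −2) or more than five off-targets excluded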
Calls: active = strongly reduced calcium entry; inactive = no strong reduction

CG31211 [DRSC14953] scored calcium entry signal, replicate 1 (fluorescence units) = 2.73e7; calcium entry signal, replicate 2 (fluorescence units) = 8.50e7; resting calcium signal, replicate 1 (fluorescence units) = 1.27e7; resting calcium signal, replicate 2 (fluorescence units) = 3.79e7; inactive. Depletion of CG31211 [DRSC15344] came out at: calcium entry signal, replicate 1 (fluorescence units) = 3.00e7; calcium entry signal, replicate 2 (fluorescence units) = 3.47e7; resting calcium signal, replicate 1 (fluorescence units) = 1.58e7; resting calcium signal, replicate 2 (fluorescence units) = 1.73e7; inactive. With knock-down of CG31211 [DRSC21478], the screen gave calcium entry signal, replicate 1 (fluorescence units) = 2.20e7; calcium entry signal, replicate 2 (fluorescence units) = 3.23e7; resting calcium signal, replicate 1 (fluorescence units) = 1.24e7; resting calcium signal, replicate 2 (fluorescence units) = 1.56e7; inactive. sqd [DRSC15160] scored calcium entry signal, replicate 1 (fluorescence units) = 4.83e7; calcium entry signal, replicate 2 (fluorescence units) = 7.07e7; resting calcium signal, replicate 1 (fluorescence units) = 2.14e7; resting calcium signal, replicate 2 (fluorescence units) = 7.60e7; inactive. After knock-down of sqd [DRSC17066], the record shows calcium entry signal, replicate 1 (fluorescence units) = 3.37e7; calcium entry signal, replicate 2 (fluorescence units) = 1.78e7; resting calcium signal, replicate 1 (fluorescence units) = 1.55e7; resting calcium signal, replicate 2 (fluorescence units) = 9.01e6; inactive. For sqd [DRSC22954], the entry reads calcium entry signal, replicate 1 (fluorescence units) = 2.72e7; calcium entry signal, replicate 2 (fluorescence units) = 2.47e7; resting calcium signal, replicate 1 (fluorescence units) = 1.37e7; resting calcium signal, replicate 2 (fluorescence units) = 1.11e7; inactive.

With knock-down of CG14186 [DRSC10185], the screen gave calcium entry signal, replicate 1 (fluorescence units) = 3.42e7; calcium entry signal, replicate 2 (fluorescence units) = 4.30e7; resting calcium signal, replicate 1 (fluorescence units) = 1.49e7; resting calcium signal, replicate 2 (fluorescence units) = 2.78e7; inactive.

Entries above whose gene name begins with S or s:
sqd [DRSC15160] → calcium entry signal, replicate 1 (fluorescence units) = 4.83e7; calcium entry signal, replicate 2 (fluorescence units) = 7.07e7; resting calcium signal, replicate 1 (fluorescence units) = 2.14e7; resting calcium signal, replicate 2 (fluorescence units) = 7.60e7; activity call = inactive
sqd [DRSC17066] → calcium entry signal, replicate 1 (fluorescence units) = 3.37e7; calcium entry signal, replicate 2 (fluorescence units) = 1.78e7; resting calcium signal, replicate 1 (fluorescence units) = 1.55e7; resting calcium signal, replicate 2 (fluorescence units) = 9.01e6; activity call = inactive
sqd [DRSC22954] → calcium entry signal, replicate 1 (fluorescence units) = 2.72e7; calcium entry signal, replicate 2 (fluorescence units) = 2.47e7; resting calcium signal, replicate 1 (fluorescence units) = 1.37e7; resting calcium signal, replicate 2 (fluorescence units) = 1.11e7; activity call = inactive

Additional entries follow:
CG8136 [DRSC16385] gave calcium entry signal, replicate 1 (fluorescence units) = 4.80e7; calcium entry signal, replicate 2 (fluorescence units) = 3.59e7; resting calcium signal, replicate 1 (fluorescence units) = 2.24e7; resting calcium signal, replicate 2 (fluorescence units) = 1.76e7; inactive. Gpb5 [DRSC21241] gave calcium entry signal, replicate 1 (fluorescence units) = 5.82e7; calcium entry signal, replicate 2 (fluorescence units) = 3.44e7; resting calcium signal, replicate 1 (fluorescence units) = 2.69e7; resting calcium signal, replicate 2 (fluorescence units) = 1.70e7; inactive. RhoGAP16F [DRSC20025] gave calcium entry signal, replicate 1 (fluorescence units) = 3.37e7; calcium entry signal, replicate 2 (fluorescence units) = 3.93e7; resting calcium signal, replicate 1 (fluorescence units) = 1.61e7; resting calcium signal, replicate 2 (fluorescence units) = 1.73e7; inactive. Silencing of Gr57a [DRSC06401] resulted in: calcium entry signal, replicate 1 (fluorescence units) = 3.17e7; calcium entry signal, replicate 2 (fluorescence units) = 2.96e7; resting calcium signal, replicate 1 (fluorescence units) = 1.52e7; resting calcium signal, replicate 2 (fluorescence units) = 1.48e7; inactive. CG14445 [DRSC17938] scored calcium entry signal, replicate 1 (fluorescence units) = 3.06e7; calcium entry signal, replicate 2 (fluorescence units) = 3.50e7; resting calcium signal, replicate 1 (fluorescence units) = 1.45e7; resting calcium signal, replicate 2 (fluorescence units) = 1.54e7; inactive. For CG13031 [DRSC09911] the deposit lists calcium entry signal, replicate 1 (fluorescence units) = 3.86e7; calcium entry signal, replicate 2 (fluorescence units) = 5.86e7; resting calcium signal, replicate 1 (fluorescence units) = 1.89e7; resting calcium signal, replicate 2 (fluorescence units) = 2.15e7; inactive.

With knock-down of CG32576 [DRSC19136], the record shows calcium entry signal, replicate 1 (fluorescence units) = 2.98e7; calcium entry signal, replicate 2 (fluorescence units) = 3.79e7; resting calcium signal, replicate 1 (fluorescence units) = 1.57e7; resting calcium signal, replicate 2 (fluorescence units) = 1.93e7; inactive.
